37 targets from the supplement of paper PMC7666118 can be followed below.

The chains behind the UniProt entries cited, without tags or fusion partners. Where a name states a change or a piece, a line headed by the entry shows the natural chain unless it says otherwise.
UniProt Q8N122, whole entry: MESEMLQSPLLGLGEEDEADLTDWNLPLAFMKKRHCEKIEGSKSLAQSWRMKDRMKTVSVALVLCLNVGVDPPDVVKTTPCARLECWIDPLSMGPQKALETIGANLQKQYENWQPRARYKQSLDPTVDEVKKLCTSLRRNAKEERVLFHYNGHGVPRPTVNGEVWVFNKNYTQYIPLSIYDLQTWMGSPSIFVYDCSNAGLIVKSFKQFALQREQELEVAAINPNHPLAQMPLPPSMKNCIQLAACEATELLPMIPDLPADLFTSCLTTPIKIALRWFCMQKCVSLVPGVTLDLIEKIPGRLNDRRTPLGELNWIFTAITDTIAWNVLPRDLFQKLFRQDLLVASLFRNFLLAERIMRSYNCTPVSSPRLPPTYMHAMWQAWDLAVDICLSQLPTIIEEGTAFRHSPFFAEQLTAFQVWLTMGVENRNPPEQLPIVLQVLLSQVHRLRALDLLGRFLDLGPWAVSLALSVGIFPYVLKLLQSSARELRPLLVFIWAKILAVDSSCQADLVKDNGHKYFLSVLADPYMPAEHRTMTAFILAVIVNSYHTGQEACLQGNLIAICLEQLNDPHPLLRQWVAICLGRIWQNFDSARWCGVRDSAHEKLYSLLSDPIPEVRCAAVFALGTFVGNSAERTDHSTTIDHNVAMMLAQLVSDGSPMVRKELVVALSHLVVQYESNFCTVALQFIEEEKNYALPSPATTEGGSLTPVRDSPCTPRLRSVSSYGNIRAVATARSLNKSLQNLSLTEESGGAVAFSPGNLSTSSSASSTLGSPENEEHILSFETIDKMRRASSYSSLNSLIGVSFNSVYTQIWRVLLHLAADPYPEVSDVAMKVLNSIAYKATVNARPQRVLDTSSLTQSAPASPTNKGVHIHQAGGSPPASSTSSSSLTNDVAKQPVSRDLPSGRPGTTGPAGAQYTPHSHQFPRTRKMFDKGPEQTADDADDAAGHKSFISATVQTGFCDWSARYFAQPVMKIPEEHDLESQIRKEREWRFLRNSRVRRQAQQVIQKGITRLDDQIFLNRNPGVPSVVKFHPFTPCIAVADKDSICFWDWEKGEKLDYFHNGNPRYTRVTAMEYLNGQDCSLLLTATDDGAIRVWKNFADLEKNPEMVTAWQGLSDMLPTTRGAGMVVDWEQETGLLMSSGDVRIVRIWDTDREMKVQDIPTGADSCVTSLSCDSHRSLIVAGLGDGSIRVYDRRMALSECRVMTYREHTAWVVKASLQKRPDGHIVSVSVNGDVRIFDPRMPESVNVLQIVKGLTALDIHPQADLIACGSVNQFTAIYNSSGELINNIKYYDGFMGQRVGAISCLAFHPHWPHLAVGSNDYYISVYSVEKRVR
UniProt P62877, whole entry, looked up: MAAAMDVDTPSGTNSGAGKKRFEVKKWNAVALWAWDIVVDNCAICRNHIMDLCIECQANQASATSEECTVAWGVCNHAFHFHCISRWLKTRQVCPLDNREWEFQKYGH
UniProt Q13546: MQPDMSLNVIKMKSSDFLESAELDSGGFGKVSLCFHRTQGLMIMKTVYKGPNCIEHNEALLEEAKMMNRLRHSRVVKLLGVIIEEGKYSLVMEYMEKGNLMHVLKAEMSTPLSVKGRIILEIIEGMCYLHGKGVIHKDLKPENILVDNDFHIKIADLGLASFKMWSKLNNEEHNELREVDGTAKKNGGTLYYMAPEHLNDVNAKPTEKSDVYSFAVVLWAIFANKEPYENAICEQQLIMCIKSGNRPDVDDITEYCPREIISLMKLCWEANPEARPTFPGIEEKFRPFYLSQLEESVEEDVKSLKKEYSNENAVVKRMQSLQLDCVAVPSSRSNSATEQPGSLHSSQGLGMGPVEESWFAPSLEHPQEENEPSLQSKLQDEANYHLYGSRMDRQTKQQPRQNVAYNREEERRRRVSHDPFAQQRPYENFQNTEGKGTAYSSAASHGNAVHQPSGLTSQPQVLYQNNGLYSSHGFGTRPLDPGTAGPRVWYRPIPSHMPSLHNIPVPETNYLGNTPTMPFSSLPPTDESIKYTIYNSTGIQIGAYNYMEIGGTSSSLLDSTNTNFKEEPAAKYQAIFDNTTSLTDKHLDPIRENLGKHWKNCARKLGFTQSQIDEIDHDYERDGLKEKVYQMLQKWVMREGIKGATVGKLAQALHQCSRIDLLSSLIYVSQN
UniProt Q9H6H4: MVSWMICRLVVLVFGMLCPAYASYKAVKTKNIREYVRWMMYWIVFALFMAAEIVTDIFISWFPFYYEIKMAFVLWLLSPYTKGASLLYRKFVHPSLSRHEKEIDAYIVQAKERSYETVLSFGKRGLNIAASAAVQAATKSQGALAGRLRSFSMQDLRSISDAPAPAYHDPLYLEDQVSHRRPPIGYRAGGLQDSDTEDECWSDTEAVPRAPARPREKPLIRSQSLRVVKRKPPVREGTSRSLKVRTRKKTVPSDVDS
UniProt Q8NC42: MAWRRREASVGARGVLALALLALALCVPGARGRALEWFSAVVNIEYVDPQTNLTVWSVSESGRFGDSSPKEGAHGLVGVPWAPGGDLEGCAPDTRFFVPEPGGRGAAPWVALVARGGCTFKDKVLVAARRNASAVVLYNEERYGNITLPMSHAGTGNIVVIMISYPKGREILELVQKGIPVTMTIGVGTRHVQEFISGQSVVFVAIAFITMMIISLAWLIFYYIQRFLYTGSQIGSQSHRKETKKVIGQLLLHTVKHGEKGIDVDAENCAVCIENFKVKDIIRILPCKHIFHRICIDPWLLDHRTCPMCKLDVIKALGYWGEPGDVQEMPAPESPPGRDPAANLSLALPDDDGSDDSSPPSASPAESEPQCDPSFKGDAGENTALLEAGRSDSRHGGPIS
UniProt Q9Y256: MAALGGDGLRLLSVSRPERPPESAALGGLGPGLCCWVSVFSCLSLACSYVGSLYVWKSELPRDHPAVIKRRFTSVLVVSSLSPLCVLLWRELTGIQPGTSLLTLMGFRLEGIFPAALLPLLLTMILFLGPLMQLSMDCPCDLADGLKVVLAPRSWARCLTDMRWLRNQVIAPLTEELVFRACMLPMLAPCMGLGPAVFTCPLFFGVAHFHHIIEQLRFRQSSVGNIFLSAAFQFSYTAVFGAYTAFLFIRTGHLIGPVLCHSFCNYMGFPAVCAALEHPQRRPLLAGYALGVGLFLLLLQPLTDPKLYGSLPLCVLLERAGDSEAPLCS
UniProt Q8NBN7: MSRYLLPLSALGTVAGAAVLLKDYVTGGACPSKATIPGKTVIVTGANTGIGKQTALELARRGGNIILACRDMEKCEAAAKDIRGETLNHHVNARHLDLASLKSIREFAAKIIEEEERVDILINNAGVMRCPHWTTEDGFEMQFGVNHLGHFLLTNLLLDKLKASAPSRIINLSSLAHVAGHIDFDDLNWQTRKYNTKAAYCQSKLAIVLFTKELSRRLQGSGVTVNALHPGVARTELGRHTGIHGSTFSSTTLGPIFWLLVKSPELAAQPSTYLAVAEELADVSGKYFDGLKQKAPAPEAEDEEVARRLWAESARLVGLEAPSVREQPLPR
UniProt Q15287: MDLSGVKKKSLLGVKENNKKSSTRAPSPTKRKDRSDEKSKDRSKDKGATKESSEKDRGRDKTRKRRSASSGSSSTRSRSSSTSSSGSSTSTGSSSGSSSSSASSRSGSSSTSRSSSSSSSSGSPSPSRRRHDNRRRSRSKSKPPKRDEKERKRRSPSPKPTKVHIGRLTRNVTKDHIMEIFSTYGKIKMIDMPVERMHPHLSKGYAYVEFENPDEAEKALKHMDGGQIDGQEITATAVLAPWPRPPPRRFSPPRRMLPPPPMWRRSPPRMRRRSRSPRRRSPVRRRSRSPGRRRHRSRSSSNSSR
UniProt Q04864: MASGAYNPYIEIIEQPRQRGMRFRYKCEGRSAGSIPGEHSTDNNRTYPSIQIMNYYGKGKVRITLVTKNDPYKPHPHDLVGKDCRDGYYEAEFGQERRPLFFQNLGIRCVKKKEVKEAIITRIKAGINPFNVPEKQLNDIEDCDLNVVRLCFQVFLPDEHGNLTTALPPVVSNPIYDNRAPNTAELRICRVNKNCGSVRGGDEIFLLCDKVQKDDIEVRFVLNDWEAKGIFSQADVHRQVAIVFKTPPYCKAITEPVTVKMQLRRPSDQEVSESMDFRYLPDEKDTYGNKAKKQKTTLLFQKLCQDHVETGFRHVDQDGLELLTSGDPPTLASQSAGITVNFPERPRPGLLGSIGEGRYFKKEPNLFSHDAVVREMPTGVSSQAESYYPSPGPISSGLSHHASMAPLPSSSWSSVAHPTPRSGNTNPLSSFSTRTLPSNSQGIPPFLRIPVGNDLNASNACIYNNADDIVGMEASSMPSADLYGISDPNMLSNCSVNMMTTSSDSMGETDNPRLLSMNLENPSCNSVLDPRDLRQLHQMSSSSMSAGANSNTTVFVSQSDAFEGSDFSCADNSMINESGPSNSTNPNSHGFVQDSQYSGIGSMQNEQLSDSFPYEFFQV
UniProt P22670: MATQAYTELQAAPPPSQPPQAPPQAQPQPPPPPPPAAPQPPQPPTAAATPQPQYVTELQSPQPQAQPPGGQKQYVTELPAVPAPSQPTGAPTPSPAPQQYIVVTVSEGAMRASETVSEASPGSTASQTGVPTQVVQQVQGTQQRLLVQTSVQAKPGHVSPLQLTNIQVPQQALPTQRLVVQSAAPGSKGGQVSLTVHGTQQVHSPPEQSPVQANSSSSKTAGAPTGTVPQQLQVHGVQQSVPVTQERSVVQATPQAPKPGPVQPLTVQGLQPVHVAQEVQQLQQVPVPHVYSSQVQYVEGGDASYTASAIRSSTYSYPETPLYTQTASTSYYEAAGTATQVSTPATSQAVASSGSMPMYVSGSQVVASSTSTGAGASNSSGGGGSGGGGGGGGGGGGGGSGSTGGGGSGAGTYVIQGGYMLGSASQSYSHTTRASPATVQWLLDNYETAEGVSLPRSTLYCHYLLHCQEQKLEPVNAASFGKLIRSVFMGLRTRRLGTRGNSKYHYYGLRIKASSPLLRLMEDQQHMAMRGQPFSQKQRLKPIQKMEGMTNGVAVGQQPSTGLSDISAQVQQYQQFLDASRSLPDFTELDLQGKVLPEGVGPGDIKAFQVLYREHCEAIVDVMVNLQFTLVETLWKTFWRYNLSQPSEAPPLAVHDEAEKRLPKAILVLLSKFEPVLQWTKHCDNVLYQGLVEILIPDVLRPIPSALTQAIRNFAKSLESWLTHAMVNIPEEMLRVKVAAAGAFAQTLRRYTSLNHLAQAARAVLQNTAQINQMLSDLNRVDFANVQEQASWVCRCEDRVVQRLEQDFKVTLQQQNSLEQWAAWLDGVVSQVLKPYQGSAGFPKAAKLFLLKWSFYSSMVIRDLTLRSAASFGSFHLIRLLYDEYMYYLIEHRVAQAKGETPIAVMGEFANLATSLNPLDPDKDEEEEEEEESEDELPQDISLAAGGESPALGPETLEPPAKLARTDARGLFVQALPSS
UniProt Q9UPN7: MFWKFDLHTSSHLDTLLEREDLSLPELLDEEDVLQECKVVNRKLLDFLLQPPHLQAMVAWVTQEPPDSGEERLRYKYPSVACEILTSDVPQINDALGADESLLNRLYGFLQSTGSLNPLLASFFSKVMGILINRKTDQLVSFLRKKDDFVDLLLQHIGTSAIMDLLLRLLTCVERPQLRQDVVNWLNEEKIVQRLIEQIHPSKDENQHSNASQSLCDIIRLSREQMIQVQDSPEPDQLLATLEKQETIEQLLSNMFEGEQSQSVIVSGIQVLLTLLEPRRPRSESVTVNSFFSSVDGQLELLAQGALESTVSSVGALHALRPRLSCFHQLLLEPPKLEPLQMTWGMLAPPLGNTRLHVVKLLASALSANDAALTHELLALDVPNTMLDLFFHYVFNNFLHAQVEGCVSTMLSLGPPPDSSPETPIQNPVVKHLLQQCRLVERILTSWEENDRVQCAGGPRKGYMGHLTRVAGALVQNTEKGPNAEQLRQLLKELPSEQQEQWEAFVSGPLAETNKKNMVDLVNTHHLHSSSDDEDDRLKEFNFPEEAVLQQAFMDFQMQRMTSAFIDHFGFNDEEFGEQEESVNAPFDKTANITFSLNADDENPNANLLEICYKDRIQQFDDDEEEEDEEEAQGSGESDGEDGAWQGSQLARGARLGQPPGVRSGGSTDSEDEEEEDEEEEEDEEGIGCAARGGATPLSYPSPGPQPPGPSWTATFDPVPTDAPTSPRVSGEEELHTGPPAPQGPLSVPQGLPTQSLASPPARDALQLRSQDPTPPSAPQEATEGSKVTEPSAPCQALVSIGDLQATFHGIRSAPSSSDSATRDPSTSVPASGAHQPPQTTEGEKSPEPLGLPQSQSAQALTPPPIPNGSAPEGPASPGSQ
UniProt Q9Y508: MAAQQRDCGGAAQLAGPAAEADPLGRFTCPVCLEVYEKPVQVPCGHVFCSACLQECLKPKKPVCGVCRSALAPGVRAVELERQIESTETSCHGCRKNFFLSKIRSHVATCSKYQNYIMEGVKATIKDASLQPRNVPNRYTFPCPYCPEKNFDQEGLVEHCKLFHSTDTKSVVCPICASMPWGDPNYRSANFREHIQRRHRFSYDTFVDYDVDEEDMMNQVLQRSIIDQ

Some of the results follow.

Compound in the test: COc1ccc(Cn2ccc3ccc(C(=O)NO)cc32)cc1
In words: dose-dependent thermal stabilisation call (2D-TPP, DLPTP, 10% FDR) (binary (1 = stabilised)); higher = stabilised by the compound. The conditions noted are these: system: HL-60 intact cells; concentration range 0.04-10 µM.
Turning to RPTOR (UniProt Q8N122), the “dose-dependent thermal stabilisation call” value was inactive: 0. Take RPS17 (UniProt P08708): the “dose-dependent thermal stabilisation call” value was active: 1.

Regarding RFX7 (UniProt Q2KHR2), the “dose-dependent thermal stabilisation call” value was inactive: 0.

As for RLTPR (UniProt Q6F5E8), the “dose-dependent thermal stabilisation call” value is inactive: 0.

As for RBX1 (UniProt P62877), the “dose-dependent thermal stabilisation call” value is inactive: 0. The figure for RGP1 (UniProt Q92546) is inactive: 0; for RRP7A (UniProt Q9Y3A4) it is inactive: 0; for RIPK1 (UniProt Q13546) it is inactive: 0. The figure for RTF1 (UniProt Q92541) is inactive: 0; for RPS7 (UniProt P62081) it is inactive: 0. With RTTN (UniProt Q86VV8) the figure was inactive: 0; with RPAP2 (UniProt Q8IXW5), inactive: 0. For SAFB2 (UniProt Q14151), the “dose-dependent thermal stabilisation call” value is inactive: 0. With REEP4 (UniProt Q9H6H4) the figure was inactive: 0; with RNF149 (UniProt Q8NC42), inactive: 0; with RUNX1 (UniProt Q01196), inactive: 0. The figure for RCE1 (UniProt Q9Y256) is inactive: 0. For RPE (UniProt Q96AT9), the “dose-dependent thermal stabilisation call” value is inactive: 0. With RPN2 (UniProt P04844) the figure was inactive: 0; with RPSA (UniProt P08865), inactive: 0. Consider RPL29 (UniProt P47914), for which the “dose-dependent thermal stabilisation call” value is inactive: 0. With RPP40 (UniProt O75818) the figure was inactive: 0; with RPL10A (UniProt P62906), inactive: 0. The figure for RDH13 (UniProt Q8NBN7) is inactive: 0. With RPL24 (UniProt P83731) the figure was inactive: 0; with RNPS1 (UniProt Q15287), inactive: 0; with REL (UniProt Q04864), inactive: 0. For the target RNF2 (UniProt Q99496), the “dose-dependent thermal stabilisation call” value was inactive: 0. With RFX1 (UniProt P22670) the figure was inactive: 0; with RPL7 (UniProt P18124), inactive: 0; with SAPS1 (UniProt Q9UPN7), inactive: 0.

In the case of RPS8 (UniProt P62241), the “dose-dependent thermal stabilisation call” value is inactive: 0. With RPL23 (UniProt P62829) the figure was inactive: 0; with RPL15 (UniProt P61313), inactive: 0; with RILPL2 (UniProt Q969X0), inactive: 0. For the target RIOK2 (UniProt Q9BVS4), the “dose-dependent thermal stabilisation call” value was inactive: 0. The figure for RNF114 (UniProt Q9Y508) is inactive: 0.
